According to PubChem BioAssay AID2685 (National Center for Advancing Translational Sciences (NCATS), 2010):
Some of the results follow. The main result of the screen is listed elsewhere. These columns were measured beside it and carry no call. Most of these compounds were active or inconclusive in the main read-out, so they are no random draw. Potencies come from curve fits of mixed quality, noted in brackets.

Assay: qHTS Assay for Lipid Storage Modulators in Drosophila S3 Cells;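 for cell number change: cells counted by Cell Tracker Red CMTPX staining in the red channel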
Details: BODIPY lipid droplet fluorescence, 18-24 h; for cell number change: measured here: cell count max response, cells fed with added oleic acid
Summary of the method: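 Laser-scanning cytometry quantifies lipid droplet accumulation (500–530 nm total intensity; droplet/cell object ratio) in oleic acid-fed (400 uM added) Drosophila S3 cells treated with a concentration series. 20 uM Triacsin C defined 100% inhibition.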

[1] = measured here: cell number channel AC50, cells fed with added oleic acid
[2] = measured here: lipid fluorescence (Fed channel) AC50, cells fed with added oleic acid

Q: For CC(=O)c1cccc(OCC(=O)N2CCCc3ccccc32)c1, which cell number change is on record?
A: -4.62%

Q: Which cell number change does the source give for CN1CCCN(S(=O)(=O)c2ccc(Cl)c(Cl)c2)CC1 here?
A: -29.8%

Q: And the AC50 [1]?
A: 0.231 µM [falling, full curve]

Q: And the AC50 [2]?
A: 2.06 µM [falling, partial curve]

Q: With N#Cc1ccc(-c2ccc(OCC(=O)NCC(=O)Nc3ccc(F)c(F)c3F)cc2)cc1 as the molecule, how does the cell number change read?
A: 15.1%

Q: What about the AC50 [2] of the same molecule?
A: 16.4 µM [rising, partial curve]

Q: What does the source list for CC(C)(C)C(=O)Nc1cccc(C(=O)c2cccc(NC(=O)C(C)(C)C)c2)c1?
A: cell number change: 4.05%; AC50 [2]: 0.58 µM [rising, single point]

Q: For S=C(NCc1ccccc1)Nc1cccc2ccccc12, which AC50 [2] is on record?
A: 5.01 µM [rising, partial curve]

Q: Which cell number change does the source give for Cc1ccc(C)c(N2CCN(S(=O)(=O)c3c(C)[nH]c(C)c3C(=O)N3CCCC3)CC2)c1 here?
A: -33.6%

Q: And the AC50 [1]?
A: 29.1 µM [falling, single point]

Q: Which cell number change does the source give for Cc1ccc2oc(C(=O)NCc3ccc(S(N)(=O)=O)cc3)cc(=O)c2c1 here?
A: 129%

Q: And the AC50 [1]?
A: 29.1 µM [rising, single point]

Q: And the AC50 [2]?
A: 29.1 µM [falling, partial curve, poor fit]

Q: Which cell number change does the source give for CCOC(=O)N1CCN(c2c(NCCCN(CC)Cc3ccccc3)c(=O)c2=O)CC1 here?
A: 5.09%

Q: What about the AC50 [2] of the same molecule?
A: 0.00651 µM [rising, full curve, poor fit]

Q: For N#CCC(=O)Nc1ccc(C(=O)OCC(=O)c2ccc3c(c2)OCCO3)cc1, which cell number change is on record?
A: -30.9%

Q: And the AC50 [1]?
A: 0.00461 µM [falling, full curve, poor fit]

Q: Which AC50 [2] does the source give for O=C(c1ccccc1)c1ncc(C(F)(F)F)cc1Cl here?
A: 1.03 µM [rising, full curve]

Q: For CN1CCN(C(=O)c2ccc(-c3ccccc3)cc2)CC1, which cell number change is on record?
A: -5.25%

Q: For CCOc1ccccc1-n1c(=S)sc2c(=O)n(-c3ccc(C)cc3)c(=S)[nH]c21, which cell number change is on record?
A: 14.9%

Q: What about the AC50 [1] of the same molecule?
A: 4.11 µM [falling, single point]

Q: What about the AC50 [2] of the same molecule?
A: 5.17 µM [falling, single point]

Q: Which cell number change does the source give for Nc1nc(COC(=O)CCC(=O)c2ccccc2)nc(Nc2ccccc2)n1 here?
A: -13.1%

Q: Which cell number change does the source give for CCC(C)(C(=O)NC1CCCCC1)N(C(=O)CNC(C)=O)c1c(C)n(C)n(-c2ccccc2)c1=O (configuration not stated) here?
A: -35.5%

Q: And the AC50 [1]?
A: 0.206 µM [falling, full curve, poor fit]

Q: And the AC50 [2]?
A: 0.206 µM [falling, full curve, poor fit]

Q: Which results are given for COc1ccc(N2C(=O)NC(NC(=O)c3cccnc3)(C(F)(F)F)C2=O)cc1 (configuration not stated)?
A: cell number change: -14.6%; AC50 [2]: 1.84 µM [falling, partial curve, poor fit]

Q: For C/C(=N\Nc1ccc(S(=O)(=O)Nc2ccc(Cl)cc2)cc1[N+](=O)[O-])c1ccc(N2CCOCC2)cc1, which cell number change is on record?
A: -46.5%

Q: What about the AC50 [1] of the same molecule?
A: 0.231 µM [falling, full curve]

Q: What about the AC50 [2] of the same molecule?
A: 2.31 µM [falling, full curve]
